PubChem BioAssay AID504786 | Drosophila RNAi Screening Center – 2011
The deposit covers about 21,000 reagents; this is an unselected part of those with a known target gene and a result. 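Primary screen; positive scores mean lost reporter signal, so the sign may be inverted from the usual convention.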 Reagents against one gene are numbered here. A plus sign joins genes that one reagent is predicted to hit. Not all columns of the deposit are shown. Reagent sequences are not shown.

- Screen: 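Knock-downs reducing HIF reporter induction by the iron chelator DFO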 (primary screen)
- Cell system: Drosophila S2 cells with a stable HIF luciferase reporter
- Reagent: long dsRNA against Drosophila genes, about 0.2 µg dsRNA per well of a 384-well plate
- Duration: three days of knock-down, then 20 h of DFO before reading
- Challenge: desferrioxamine (DFO) at 100 µM, an iron chelator that mimics hypoxia, for 20 h
- Measured: 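Firefly luciferase driven by the mouse ldh-a hypoxia-response element, measured after 20 h of 100 µM DFO; z-scores per plate, higher means more signal lost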
- Direction: z-score: higher = stronger loss of HIF reporter signal

z-score, replicate 1, by gene and reagent
CG33768: #1 0.2
dgt3: #1 0
Grip71: #1 0.1
Jwa: #1 -0.3
CG9609: #1 0.2
Mhc: #1 -0.2
Rab2: #1 0.1
RpLP0-like: #1 -0.4
Hrd3: #1 -0.4
CG1663: #1 -0.1
CG5897: #1 -0.2
CG33474: #1 -0.2
Asx: #1 5.7
CG8852: #1 -0.1
CG1640: #1 0
Helz: #1 -0.4
CG11060: #1 -0.3
BobA: #1 -0.3
CG9447: #1 -0.2
Cyp313a5: #1 -0.3
CG15260: #1 -0.1
CG5664: #1 -0.7
CG14418: #1 0.8
PAN2: #1 -0.4
CG12640: #1 0
C1GalTA: #1 -0.2
sbm: #1 -0.2
CG17127: #1 -0.3
Atg13: #1 -0.4
CG10660: #1 8.6
Sps1: #1 0.6
CG9395: #1 -0.3
Cpr60D: #1 -0.1
TotZ: #1 0.4
Cyt-c1L: #1 -0.2
CG32444: #1 -0.3
CG18281: #1 -0.3
CG3817: #1 -0.3
CG40045: #1 -0.4
Atg6: #1 -0.2
CG15336: #1 -0.3
CG5989: #1 0.1
YL-1: #1 -0.2
Yod1: #1 -0.1
CG14963: #1 -0.3
galla-1: #1 -0.2
Ak2: #1 0
CG31933: #1 0
CG7631: #1 -0.3
CG31221: #1 -1.2; #2 -1
CG12540: #1 -0.2
Hpf1: #1 -0.4
Trp1: #1 -0.2
SmydA-1: #1 -0.4
CG4452: #1 0.3
RpL40: #1 4.9
SmE: #1 6.8
GstD9: #1 -0.3
CG10140: #1 -0.2
Cyp6a21: #1 -0.1
Mst84Dc: #1 -0.2
slow: #1 -0.4; #2 -0.3
CG3740: #1 -0.4
mute: #1 2.1
CR11023: #1 -0.3
CG18549: #1 -0.3
CG14711 + Zaf1: #1 -0.3
Fas1: #1 0.5
BBS8: #1 0
CG34204: #1 -0.6
CanB: #1 -0.2
Prosalpha5: #1 -0.3
Sec71: #1 -0.3
CG11406: #1 -0.2; #2 -0.3
ATPsynC: #1 1.1
CG4554: #1 0
Dbp73D: #1 -0.1
by: #1 -0.4
Cpr49Ae: #1 -0.3
milt: #1 0.8; #2 1.1; #3 -0.3
